PubChem BioAssay AID504774 – Drosophila RNAi Screening Center, 2011
The deposit covers about 23,000 reagents; shown is an unselected part of those that have a named target and a result. 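Values are quantile-normalised luminescence on an arbitrary scale; higher means more cells surviving MMS.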 Reagents against one gene are numbered here. A plus sign joins genes that one reagent is predicted to hit.

Assay: 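Genes required for cells to withstand methyl methanesulphonate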 (primary screen)
Cells: Drosophila Kc167 cells
Reagents: long dsRNA against Drosophila genes, about 0.25 µg dsRNA per well
Duration: about 6 days: 3 days knock-down, then 3 days with or without MMS
Challenge: methyl methanesulphonate 0.004% (w/v) for 3 days after knock-down
Measurement: 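ATP-dependent luminescence as a measure of live cells in MMS-exposed wells, quantile normalised within each plate, with replicate values also given as a mean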
Scale: mean viability with MMS and viability with MMS: higher = more surviving cells after MMS

no.	target	dsRNA no.	mean viability with MMS	viability with MMS, replicate 1	viability with MMS, replicate 2
1	Nt5a (5' nucleotidase A)	1	3.73e6	4.18e6	4.29e6
2	net	1	3.55e6	3.98e6	4.08e6
3	AsnRS-m (Asparaginyl-tRNA synthetase, mitochondrial)	1	3.61e6	4.00e6	4.16e6
4	dgt3 (dim gamma-tubulin 3)	1	3.52e6	3.64e6	4.12e6
5	CG8501	1	3.61e6	3.99e6	4.21e6
6	mthl15 (methuselah-like 15)	1	3.34e6	3.85e6	3.69e6
7	CR11700 (retired record)	1	2.28e6	3.30e6	3.30e6
8	DENR (Density regulated protein)	1	3.79e6	4.29e6	4.34e6
9	CG18139 (retired record) + Hmx	1	3.37e6	3.75e6	3.87e6
10	CG12239	1	2.93e6	3.63e6	3.78e6
11	CG8097	1	3.55e6	4.03e6	4.03e6
12	Dcps (Decapping enzyme, scavenger)	1	3.66e6	4.15e6	4.19e6
13	CG10802	1	3.59e6	3.98e6	4.16e6
14	CG4666	1	3.53e6	4.03e6	3.99e6
15	CG4942	1	3.61e6	4.12e6	4.09e6
16	CG31815	1	3.50e6	3.96e6	4.00e6
17	ckd (cracked)	1	3.60e6	3.98e6	4.16e6
18	CG8993	1	3.61e6	4.07e6	4.08e6
19	CG12171	1	3.56e6	4.08e6	4.00e6
20	CG34223	1	3.64e6	4.07e6	4.10e6
21	Gk2 (Glycerol kinase 2)	1	3.62e6	4.10e6	4.11e6
22	CG15368	1	3.37e6	3.84e6	3.82e6
23	CG15368	2	3.77e6	4.25e6	4.29e6
24	Cyp12d1-d + Cyp12d1-p	1	3.47e6	3.96e6	3.95e6
25	Dbx	1	3.51e6	3.95e6	4.02e6
26	Dbx	2	3.56e6	4.04e6	4.03e6
27	Dbx	3	3.50e6	3.91e6	4.03e6
28	SLC22A (SLC22A family member)	1	3.50e6	3.89e6	4.01e6
29	SLC22A (SLC22A family member)	2	3.65e6	4.05e6	4.19e6
30	AOX1 (Aldehyde oxidase 1)	1	3.23e6	3.79e6	3.62e6
31	CG5357 (retired record)	1	3.53e6	3.96e6	4.03e6
32	MTF-1 (Metal response element-binding Transcription Factor-1)	1	3.46e6	4.00e6	3.85e6
33	MTF-1 (Metal response element-binding Transcription Factor-1)	2	3.74e6	3.98e6	3.92e6
34	MTF-1 (Metal response element-binding Transcription Factor-1)	3	3.60e6	4.12e6	4.03e6
35	Rdh (Red herring)	1	2.99e6	3.55e6	3.55e6
36	Rdh (Red herring)	2	3.29e6	3.48e6	3.52e6

The list goes on, starting with the last 7 of the part before.
no.	target	dsRNA no.	mean viability with MMS	viability with MMS, replicate 1	viability with MMS, replicate 2
30	AOX1 (Aldehyde oxidase 1)	1	3.23e6	3.79e6	3.62e6
31	CG5357 (retired record)	1	3.53e6	3.96e6	4.03e6
32	MTF-1 (Metal response element-binding Transcription Factor-1)	1	3.46e6	4.00e6	3.85e6
33	MTF-1 (Metal response element-binding Transcription Factor-1)	2	3.74e6	3.98e6	3.92e6
34	MTF-1 (Metal response element-binding Transcription Factor-1)	3	3.60e6	4.12e6	4.03e6
35	Rdh (Red herring)	1	2.99e6	3.55e6	3.55e6
36	Rdh (Red herring)	2	3.29e6	3.48e6	3.52e6
37	CG11588	1	3.51e6	3.98e6	3.98e6
38	CG11588	2	3.64e6	4.12e6	4.09e6
39	CG17544	1	3.40e6	3.70e6	3.96e6
40	CG30340	1	3.47e6	4.00e6	3.84e6
41	hll (heimdall)	1	3.39e6	3.94e6	3.68e6
42	CG17050 (retired record)	1	3.54e6	4.20e6	3.92e6
43	l(2)gl (lethal (2) giant larvae)	1	1.96e6	4.13e6	4.08e6
44	Cpr97Eb (Cuticular protein 97Eb)	1	3.64e6	4.15e6	4.10e6
45	CG13159	1	3.53e6	3.85e6	3.77e6
46	CG6136	1	3.48e6	3.87e6	3.99e6
47	RhoBTB (Rho-related BTB domain containing)	1	3.52e6	3.97e6	3.99e6
48	nAChRalpha3 (nicotinic Acetylcholine Receptor alpha3)	1	3.41e6	3.96e6	3.76e6
49	CG32679	1	3.52e6	4.00e6	3.99e6
50	bnl (branchless)	1	3.65e6	4.14e6	4.10e6
51	bnl (branchless)	2	3.04e6	3.63e6	3.67e6
52	bnl (branchless)	3	3.64e6	4.18e6	4.09e6
53	Tsp26A (Tetraspanin 26A)	1	3.60e6	4.12e6	4.01e6
54	CG2604	1	3.45e6	3.98e6	3.88e6
55	AGO1 (Argonaute-1)	1	3.42e6	3.92e6	3.80e6
56	CG12917	1	3.70e6	4.13e6	4.14e6
57	Or85b (Odorant receptor 85b)	1	3.42e6	3.93e6	3.84e6
58	Pop5 (POP5 ribonuclease P/MRP subunit)	1	3.45e6	3.88e6	3.90e6
59	Septin4 (Septin 4)	1	3.66e6	4.29e6	4.05e6
60	mei-W68 (meiotic W68)	1	3.52e6	4.02e6	3.95e6
61	Ccm3 (Cerebral cavernous malformation 3)	1	3.56e6	3.90e6	4.19e6
62	cyc (cycle)	1	3.54e6	4.08e6	3.95e6
63	Taf10b (TBP-associated factor 10b)	1	3.36e6	3.75e6	3.80e6
64	rig (rigor mortis)	1	3.46e6	3.81e6	4.03e6
65	rig (rigor mortis)	2	3.51e6	3.95e6	4.01e6
66	Secp43 (tRNA Selenocysteine associated protein)	1	3.55e6	4.07e6	3.97e6
67	CG9641	1	3.63e6	4.11e6	4.13e6
68	Cpr47Ec (Cuticular protein 47Ec)	1	3.56e6	4.05e6	4.06e6
69	CG15572	1	3.80e6	4.20e6	4.45e6
70	LysB (Lysozyme B)	1	3.74e6	4.21e6	4.16e6
71	Traf-like (TNF-receptor-associated factor-like)	1	3.44e6	4.00e6	3.76e6
72	CG18809	1	3.47e6	4.01e6	3.88e6
73	obst-I (obstructor-I)	1	3.41e6	3.88e6	3.88e6
74	Tep4 (Thioester-containing protein 4)	1	3.44e6	3.94e6	3.85e6
75	robo2 (roundabout 2)	1	3.52e6	3.91e6	4.06e6
76	robo2 (roundabout 2)	2	3.42e6	3.79e6	3.91e6
77	robo2 (roundabout 2)	3	3.54e6	3.95e6	4.08e6
78	robo2 (roundabout 2)	4	3.53e6	4.05e6	3.94e6
79	Klp64D (Kinesin-like protein at 64D)	1	3.68e6	4.31e6	4.04e6
80	Cyp4d2 (Cytochrome P450 4d2)	1	3.56e6	4.08e6	3.99e6
81	bru2 (bruno 2)	1	3.40e6	3.73e6	3.98e6
82	bru2 (bruno 2)	2	3.19e6	3.55e6	3.69e6
83	bru2 (bruno 2)	3	3.34e6	3.63e6	3.91e6
84	bru2 (bruno 2)	4	3.34e6	3.70e6	3.84e6
85	bru2 (bruno 2)	5	3.05e6	3.59e6	3.60e6
86	CG12321	1	3.66e6	4.08e6	4.17e6
87	KFase (Kynurenine formamidase)	1	3.39e6	3.77e6	3.84e6
